Paper PMC6534330
Results are given in words; binding and its absence hold for the method and conditions named. In cells and extracts the contact can be indirect. Some binding calls cover weakened binding; strength is not graded here.

Chains of the proteins cited; added tags and fusions are not shown. Residues count along the entry.
UniProt P55854, residues 1-92: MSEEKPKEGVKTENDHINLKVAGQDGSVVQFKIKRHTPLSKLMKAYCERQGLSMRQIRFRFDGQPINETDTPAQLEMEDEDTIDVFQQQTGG
UniProt P63165, residues 1-97: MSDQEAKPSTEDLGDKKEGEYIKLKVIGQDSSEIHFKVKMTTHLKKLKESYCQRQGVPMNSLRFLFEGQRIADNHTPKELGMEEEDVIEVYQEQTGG
UniProt P63279: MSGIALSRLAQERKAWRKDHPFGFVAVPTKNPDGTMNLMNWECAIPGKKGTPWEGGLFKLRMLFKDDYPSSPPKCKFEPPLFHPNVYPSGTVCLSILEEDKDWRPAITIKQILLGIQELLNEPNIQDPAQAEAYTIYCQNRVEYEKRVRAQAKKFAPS

B1: SUMO-protease (SENP2) (enzyme, UniProt Q9HC62 1-589)
chain: MYRWLVRILGTIFRFCDRSVPPARALLKRRRSDSTLFSTVDTDEIPAKRPRLDCFIHQVKNSLYNAASLFGFPFQLTTKPMVTSACNGTRNVAPSGEVFSNSSSCELTGSGSWNNMLKLGNKSPNGISDYPKIRVTVTRDQPRRVLPSFGFTLNSEGCNRRPGGRRHSKGNPESSLMWKPQEQAVTEMISEESGKGLRRPHCTVEEGVQKEEREKYRKLLERLKESGHGNSVCPVTSNYHSSQRSQMDTLKTKGWGEEQNHGVKTTQFVPKQYRLVETRGPLCSLRSEKRCSKGKITDTETMVGIRFENESRRGYQLEPDLSEEVSARLRLGSGSNGLLRRKVSIIETKEKNCSGKERDRRTDDLLELTEDMEKEISNALGHGPQDEILSSAFKLRITRGDIQTLKNYHWLNDEVINFYMNLLVERNKKQGYPALHVFSTFFYPKLKSGGYQAVKRWTKGVNLFEQEIILVPIHRKVHWSLVVIDLRKKCLKYLDSMGQKGHRICEILLQYLQDESKTKRNSDLNLLEWTHHSMKPHEIPQQLNGSDCGMFTCKYADYISRDKPITFTQHQMPLFRKKMVWEILHQQLL

Assays:
[1] = target: myc-tagged-SUMO-2/3 (human) (UniProt P55854); assay: condition: only cells treated with glycyrrhizic acid; co-IP; as a1, but cells treated with glycyrrhizic acid
[2] = target: myc-tagged-SUMO-2/3 (human) (UniProt P55854); assay: co-IP; native immunoprecipitation of myc-SUMO from lysates (RIPA buffer) of HEK 293 cells transfected with SAE1/2, Ubc9, SENP2 and myc-SUMO-1 or myc-SUMO-3; cells treated with the vehicle control; 1 ug antibody overnight at 4°C, magnetic Protein G beads; Western blot
[3] = target: myc-tagged-SUMO-1 (human) (UniProt P63165); assay: co-IP; as a1, but cells treated with ginkgolic acid
[4] = target: myc-tagged-SUMO-1 (human) (UniProt P63165); assay: condition: only cells treated with glycyrrhizic acid; co-IP; as a1, but cells treated with glycyrrhizic acid
[5] = target: myc-tagged-SUMO-1 (human) (UniProt P63165); assay: co-IP

Molecule	binding [1]	binding [2]	binding [3]	binding [4]	binding [5]
SUMO-conjugating enzyme (Ubc9) (from UniProt P63279 1-158)	no binding	binds			
B1	no binding	binds	no binding (condition: cells treated with ginkgolic acid)	no binding	binds
